Reference: paper PMC9376731
No constants are given. Whether binding was seen depends on the method and setting. Binding seen in cells or lysates may run through a third protein. Some results given as binding are weak or reduced against the parent protein; the word gives no strength.

Molecular target: T1, fidgetin (mouse (endogenous in mouse oocytes)) (UniProt Q9ERZ6)
T1 sequence: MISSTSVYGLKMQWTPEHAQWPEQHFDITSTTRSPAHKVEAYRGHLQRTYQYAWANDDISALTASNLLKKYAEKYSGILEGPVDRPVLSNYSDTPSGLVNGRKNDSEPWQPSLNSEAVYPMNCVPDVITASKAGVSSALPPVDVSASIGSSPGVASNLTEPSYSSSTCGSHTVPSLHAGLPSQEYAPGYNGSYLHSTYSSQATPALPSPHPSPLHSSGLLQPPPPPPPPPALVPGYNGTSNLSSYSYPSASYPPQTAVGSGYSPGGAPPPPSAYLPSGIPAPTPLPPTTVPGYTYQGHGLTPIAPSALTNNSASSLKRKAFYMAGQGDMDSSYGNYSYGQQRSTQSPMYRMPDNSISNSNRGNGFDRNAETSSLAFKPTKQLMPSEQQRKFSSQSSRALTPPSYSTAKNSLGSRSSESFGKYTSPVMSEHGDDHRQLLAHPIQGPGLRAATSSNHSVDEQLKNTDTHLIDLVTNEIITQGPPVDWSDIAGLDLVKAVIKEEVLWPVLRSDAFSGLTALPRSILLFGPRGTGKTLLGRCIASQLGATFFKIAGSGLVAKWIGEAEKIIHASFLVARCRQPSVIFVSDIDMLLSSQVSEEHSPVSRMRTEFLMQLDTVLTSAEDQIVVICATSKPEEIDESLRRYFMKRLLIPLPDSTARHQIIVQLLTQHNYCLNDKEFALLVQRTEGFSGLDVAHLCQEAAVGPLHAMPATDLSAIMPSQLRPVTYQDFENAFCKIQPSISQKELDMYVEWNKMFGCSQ
Experiment: co-IP; co-immunoprecipitation with anti-ZP3 and anti-fidgetin antibodies in mouse oocyte lysate; IP buffer 20 mmol/L Tris-HCl pH 8.0, 150 mmol/L NaCl, 0.05% Triton X-100, 0.05% Nonidet P-40, overnight at 4 °C

- binding: binds
B1: ZP3 (protein, UniProt P10761 23-351)
chain: QTLWLLPGGTPTPVGSSSPVKVECLEAELVVTVSRDLFGTGKLVQPGDLTLGSEGCQPRVSVDTDVVRFNAQLHECSSRVQMTKDALVYSTFLLHDPRPVSGLSILRTNRVEVPIECRYPRQGNVSSHPIQPTWVPFRATVSSEEKLAFSLRLMEENWNTEKSAPTFHLGEVAHLQAEVQTGSHLPLQLFVDHCVATPSPLPDPNSSPYHFIVDFHGCLVDGLSESFSAFQVPRPRPETLQFTVDVFHFANSSRNTLYITCHLKVAPANQIPDKLNKACSFNKTSQSWLPVEGDADICDCCSHGNCSNSSSSQFQIHGPRQWSKLVSRN
